Data: publication PMC5676692
Results are given in words; binding and its absence hold for the method and conditions named. In cells and extracts the contact can be indirect. Some results given as binding are weak or reduced against the parent protein; the word gives no strength.

Biological target: AAV9-138 capsid protein VP1 with the tetracysteine motif, biotinylated (adeno-associated virus serotype 9 (AAV9)) (UniProt Q6JC40)
Experiment: pull-down; biotinylated AAV9-138 particles (assembled in HEK293T cells) pulled down with streptavidin-agarose under stringent washes; eluate on Instant Blue stained gel and immunoblot with anti-AAV VP1, VP2, VP3 antibody

## AAV9 capsid protein VP3 (from UniProt Q6JC40 203-736)
  binding: binds
